These are yes or no findings as the source states them, for the method shown. Binding seen in cells or lysates may run through a third protein. For some assays here: Binding calls can cover weak binding; strength is not graded here.
How the values were obtained:
[1] = molecular target: glutathione-S-transferase (GST)-GRP78, full-length mouse GRP78 (mouse) (UniProt P20029); test: pull-down; GST fusion protein (20 µg) incubated with 500 µL DC2.4 cell membrane protein lysates (1 × 10^6 cells) for 1 h on ice, then glutathione agarose beads overnight at 4°C; immunoblot; only the target purified
[2] = molecular target: glutathione-S-transferase (GST)-GRP78, full-length mouse GRP78 (mouse), P20029; test: as above; conditions: remark: other sources report otherwise

By UniProt entry, the sequences of proteins in these tests, tags left out. Where a name states a change or a piece, a line headed by the entry shows the natural chain unless it says otherwise.
UniProt P20029: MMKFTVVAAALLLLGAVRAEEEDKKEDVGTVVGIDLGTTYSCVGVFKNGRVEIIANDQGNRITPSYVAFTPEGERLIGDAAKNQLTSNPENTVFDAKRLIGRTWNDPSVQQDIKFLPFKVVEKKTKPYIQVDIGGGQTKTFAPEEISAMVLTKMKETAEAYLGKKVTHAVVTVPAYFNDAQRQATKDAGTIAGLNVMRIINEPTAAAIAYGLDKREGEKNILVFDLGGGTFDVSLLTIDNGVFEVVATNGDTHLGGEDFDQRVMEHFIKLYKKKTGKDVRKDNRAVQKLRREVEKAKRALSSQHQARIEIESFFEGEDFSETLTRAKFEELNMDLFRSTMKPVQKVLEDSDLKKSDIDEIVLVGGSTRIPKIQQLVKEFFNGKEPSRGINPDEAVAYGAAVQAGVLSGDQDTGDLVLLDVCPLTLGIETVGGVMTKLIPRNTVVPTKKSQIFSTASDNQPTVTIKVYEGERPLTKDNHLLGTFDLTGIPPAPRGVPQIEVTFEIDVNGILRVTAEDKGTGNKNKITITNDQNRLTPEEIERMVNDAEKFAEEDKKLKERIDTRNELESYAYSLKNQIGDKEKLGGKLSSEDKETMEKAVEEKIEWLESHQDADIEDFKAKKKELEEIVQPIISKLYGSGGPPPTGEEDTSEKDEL

| Binder | binding [1] | binding [2] |
| --- | --- | --- |
| CD14 (in membrane protein lysates of DC2.4 cells) (receptor, UniProt P10810 16-336) SPAPPEPCELDEESCSCNFSDPKPDWSSAFNCLGAADVELYGGGRSLEYLLKRVDTEADLGQFTDIIKSLSLKRLTVRAARIPSRILFGALRVLGISGLQELTLENLEVTGTAPPPLLEATGPDLNILNLRNVSWATRDAWLAELQQWLKPGLKVLSIAQAHSLNFSCEQVRVFPALSTLDLSDNPELGERGLISALCPLKFPTLQVLALRNAGMETPSGVCSALAAARVQLQGLDLSHNSLRDAAGAPSCDWPSQLNSLNLSFTGLKQVPKGLPAKLSVLDLSYNRLDRNPSPDELPQVGNLSLKGNPFLDSESHSEKFN | binds |  |
| toll-like receptor (TLR) 4 (in membrane protein lysates of DC2.4 cells), Q9QUK6 26-835 (receptor) NPCIEVVPNITYQCMDQKLSKVPDDIPSSTKNIDLSFNPLKILKSYSFSNFSELQWLDLSRCEIETIEDKAWHGLHHLSNLILTGNPIQSFSPGSFSGLTSLENLVAVETKLASLESFPIGQLITLKKLNVAHNFIHSCKLPAYFSNLTNLVHVDLSYNYIQTITVNDLQFLRENPQVNLSLDMSLNPIDFIQDQAFQGIKLHELTLRGNFNSSNIMKTCLQNLAGLHVHRLILGEFKDERNLEIFEPSIMEGLCDVTIDEFRLTYTNDFSDDIVKFHCLANVSAMSLAGVSIKYLEDVPKHFKWQSLSIIRCQLKQFPTLDLPFLKSLTLTMNKGSISFKKVALPSLSYLDLSRNALSFSGCCSYSDLGTNSLRHLDLSFNGAIIMSANFMGLEELQHLDFQHSTLKRVTEFSAFLSLEKLLYLDISYTNTKIDFDGIFLGLTSLNTLKMAGNSFKDNTLSNVFANTTNLTFLDLSKCQLEQISWGVFDTLHRLQLLNMSHNNLLFLDSSHYNQLYSLSTLDCSFNRIETSKGILQHFPKSLAFFNLTNNSVACICEHQKFLQWVKEQKQFLVNVEQMTCATPVEMNTSLVLDFNNSTCYMYKTIISVSVVSVIVVSTVAFLIYHFYFHLILIAGCKKYSRGESIYDAFVIYSSQNEDWVRNELVKNLEEGVPRFHLCLHYRDFIPGVAIAANIIQEGFHKSRKVIVVVSRHFIQSRWCIFEYEIAQTWQFLSSRSGIIFIVLEKVEKSLLRQQVELYRLLSRNTYLEWEDNPLGRHIFWRRLKNALLDGKASNPEQTAEEEQETATWT |  | no binding (tested: 20 µg GST fusion protein) |

Source: publication PMC5440525
